Data from PMC4694826.
No constants are given. Whether binding was seen depends on the method and setting. In cells and extracts the contact can be indirect. Some binding calls cover weakened binding; strength is not graded here.

By UniProt entry, the sequences of proteins in these tests, tags left out.
UniProt P25963: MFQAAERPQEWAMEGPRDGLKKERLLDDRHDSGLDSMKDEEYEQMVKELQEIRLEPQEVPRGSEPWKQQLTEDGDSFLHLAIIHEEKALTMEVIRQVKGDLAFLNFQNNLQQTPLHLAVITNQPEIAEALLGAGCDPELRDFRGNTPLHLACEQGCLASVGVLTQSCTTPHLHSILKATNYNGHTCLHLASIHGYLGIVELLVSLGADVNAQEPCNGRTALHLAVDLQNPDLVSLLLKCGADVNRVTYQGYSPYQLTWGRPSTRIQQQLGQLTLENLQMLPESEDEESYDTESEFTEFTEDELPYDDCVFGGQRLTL

Assays:
[1] = target: endogenous IκBα (primary CML bone marrow cells) (human (endogenous in primary CML bone marrow cells)) (UniProt P25963); assay: co-IP; primary CML bone marrow cells; immunoprecipitation with IκBα antibody, western blot; endogenous proteins
myc-tag-IκBα [2] = target: myc-tag-IκBα (UniProt P25963); assay: co-IP; HEK293T transfected cells, in the presence of BCR-ABL; immunoprecipitation with IκBα antibody, western blot
myc-tag-IκBα [3] = target: myc-tag-IκBα (UniProt P25963); assay: co-IP; HEK293T cells transfected with the indicated plasmids; lysate (150 mM NaCl, 1 mM EDTA, 50 mM HEPES pH 7.5, 1% Triton X-100, 10% glycerol) immunoprecipitated with myc-tag antibody (IκBα) overnight at 4°C, Protein A/G agarose, western blot

endogenous p53 (primary CML bone marrow cells) (from UniProt P04637 1-393)
binding [1]: binds

p53 (HEK293T transfected cells) (from UniProt P04637 1-393)
binding (myc-tag-IκBα [2]): binds

B1: BCR (protein, UniProt P11274 1-1271)
chain: MVDPVGFAEAWKAQFPDSEPPRMELRSVGDIEQELERCKASIRRLEQEVNQERFRMIYLQTLLAKEKKSYDRQRWGFRRAAQAPDGASEPRASASRPQPAPADGADPPPAEEPEARPDGEGSPGKARPGTARRPGAAASGERDDRGPPASVAALRSNFERIRKGHGQPGADAEKPFYVNVEFHHERGLVKVNDKEVSDRISSLGSQAMQMERKKSQHGAGSSVGDASRPPYRGRSSESSCGVDGDYEDAELNPRFLKDNLIDANGGSRPPWPPLEYQPYQSIYVGGMMEGEGKGPLLRSQSTSEQEKRLTWPRRSYSPRSFEDCGGGYTPDCSSNENLTSSEEDFSSGQSSRVSPSPTTYRMFRDKSRSPSQNSQQSFDSSSPPTPQCHKRHRHCPVVVSEATIVGVRKTGQIWPNDGEGAFHGDADGSFGTPPGYGCAADRAEEQRRHQDGLPYIDDSPSSSPHLSSKGRGSRDALVSGALESTKASELDLEKGLEMRKWVLSGILASEETYLSHLEALLLPMKPLKAAATTSQPVLTSQQIETIFFKVPELYEIHKEFYDGLFPRVQQWSHQQRVGDLFQKLASQLGVYRAFVDNYGVAMEMAEKCCQANAQFAEISENLRARSNKDAKDPTTKNSLETLLYKPVDRVTRSTLVLHDLLKHTPASHPDHPLLQDALRISQNFLSSINEEITPRRQSMTVKKGEHRQLLKDSFMVELVEGARKLRHVFLFTDLLLCTKLKKQSGGKTQQYDCKWYIPLTDLSFQMVDELEAVPNIPLVPDEELDALKIKISQIKNDIQREKRANKGSKATERLKKKLSEQESLLLLMSPSMAFRVHSRNGKSYTFLISSDYERAEWRENIREQQKKCFRSFSLTSVELQMLTNSCVKLQTVHSIPLTINKEDDESPGLYGFLNVIVHSATGFKQSSNLYCTLEVDSFGYFVNKAKTRVYRDTAEPNWNEEFEIELEGSQTLRILCYEKCYNKTKIPKEDGESTDRLMGKGQVQLDPQALQDRDWQRTVIAMNGIEVKLSVKFNSREFSLKRMPSRKQTGVFGVKIAVVTKRERSKVPYIVRQCVEEIERRGMEEVGIYRVSGVATDIQALKAAFDVNNKDVSVMMSEMDVNAIAGTLKLYFRELPEPLFTDEFYPNFAEGIALSDPVAKESCMLNLLLSLPEANLLTFLFLLDHLKRVAEKEAVNKMSLHNLATVFGPTLLRPSEKESKLPANPSQPITMTDSWSLEVMSQVQVLLYFLQLEAIPAPDSKRQSILFSTEV
binding (myc-tag-IκBα [3]): binds
